This is an account of results in publication PMC4868951.

By UniProt entry, the sequences of proteins in these tests, tags left out.
UniProt Q02748: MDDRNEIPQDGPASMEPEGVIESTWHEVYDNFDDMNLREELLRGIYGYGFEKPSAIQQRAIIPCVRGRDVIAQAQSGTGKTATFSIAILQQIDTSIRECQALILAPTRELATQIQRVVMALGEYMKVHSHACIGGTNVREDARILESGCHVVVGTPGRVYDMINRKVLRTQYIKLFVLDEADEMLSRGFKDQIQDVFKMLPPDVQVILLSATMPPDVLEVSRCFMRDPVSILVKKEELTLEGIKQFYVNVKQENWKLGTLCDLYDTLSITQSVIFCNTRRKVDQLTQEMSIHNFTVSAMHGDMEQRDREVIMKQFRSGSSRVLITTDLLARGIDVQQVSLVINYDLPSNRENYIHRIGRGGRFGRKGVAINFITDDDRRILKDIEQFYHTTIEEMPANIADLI
UniProt Q95V55: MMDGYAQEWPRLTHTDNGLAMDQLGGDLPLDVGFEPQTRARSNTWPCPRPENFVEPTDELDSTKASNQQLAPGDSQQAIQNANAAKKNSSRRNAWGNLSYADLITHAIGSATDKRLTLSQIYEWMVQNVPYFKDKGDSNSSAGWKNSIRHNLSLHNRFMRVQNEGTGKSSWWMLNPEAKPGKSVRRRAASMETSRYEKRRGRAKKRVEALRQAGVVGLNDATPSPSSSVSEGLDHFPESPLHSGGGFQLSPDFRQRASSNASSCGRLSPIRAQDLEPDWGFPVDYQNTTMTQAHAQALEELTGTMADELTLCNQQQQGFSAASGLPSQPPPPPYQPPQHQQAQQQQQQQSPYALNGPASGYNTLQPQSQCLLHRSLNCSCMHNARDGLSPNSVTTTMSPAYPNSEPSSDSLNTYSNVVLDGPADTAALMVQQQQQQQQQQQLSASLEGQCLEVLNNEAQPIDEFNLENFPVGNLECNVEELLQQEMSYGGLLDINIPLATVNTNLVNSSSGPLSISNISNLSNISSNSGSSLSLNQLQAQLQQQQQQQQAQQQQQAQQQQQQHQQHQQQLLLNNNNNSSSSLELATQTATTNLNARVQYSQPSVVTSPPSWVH

These are yes or no findings as the source states them, for the method shown. Binding seen in cells or lysates may run through a third protein.

In this assay the target is FLAG-eIF4A (Drosophila) (UniProt Q02748). Briefly: co-IP; FLAG-eIF4A immunoprecipitated from Kc167 lysates, with or without amino acids, DSP cross-linking, 0.3% CHAPS lysis buffer, FLAG M2 affinity gel 5-6 h at 4°C.

Consider Foxo (from UniProt Q95V55 1-613), for which the binding result is reported as “no binding”.
